For the test, the target named is Flag-RIP3 (reconstituted in L929 cells), Q9QZL0. Put plainly: affinity purification with mass spectrometry; Flag-RIP3- or Flag-MLKL-reconstituted L929 cells, 10 ng/mL TNF for 0, 120, 210, 330 and 420 min; HBS lysis buffer (12.5 mM HEPES, 150 mM NaCl, 1% Nonidet P-40, pH 7.5); anti-Flag M2 agarose overnight at 4 °C; eluted with 3x flag peptide; heavy-labelled protein standards; DDA and SWATH-MS. The following applies: remark: other sources report otherwise.

These are yes or no findings as the source states them, for the method shown. In cells and extracts the contact can be indirect. These calls come from enrichment with a bait or labelling near it, and not all partners need be listed.

B1: RIP1 (endogenous, L929 cells), Q60855 1-656 (protein)
chain: MQPDMSLDNIKMASSDLLEKTDLDSGGFGKVSLCYHRSHGFVILKKVYTGPNRAEYNEVLLEEGKMMHRLRHSRVVKLLGIIIEEGNYSLVMEYMEKGNLMHVLKTQIDVPLSLKGRIIVEAIEGMCYLHDKGVIHKDLKPENILVDRDFHIKIADLGVASFKTWSKLTKEKDNKQKEVSSTTKKNNGGTLYYMAPEHLNDINAKPTEKSDVYSFGIVLWAIFAKKEPYENVICTEQFVICIKSGNRPNVEEILEYCPREIISLMERCWQAIPEDRPTFLGIEEEFRPFYLSHFEEYVEEDVASLKKEYPDQSPVLQRMFSLQHDCVPLPPSRSNSEQPGSLHSSQGLQMGPVEESWFSSSPEYPQDENDRSVQAKLQEEASYHAFGIFAEKQTKPQPRQNEAYNREEERKRRVSHDPFAQQRARENIKSAGARGHSDPSTTSRGIAVQQLSWPATQTVWNNGLYNQHGFGTTGTGVWYPPNLSQMYSTYKTPVPETNIPGSTPTMPYFSGPVADDLIKYTIFNSSGIQIGNHNYMDVGLNSQPPNNTCKEESTSRHQAIFDNTTSLTDEHLNPIRENLGRQWKNCARKLGFTESQIDEIDHDYERDGLKEKVYQMLQKWLMREGTKGATVGKLAQALHQCCRIDLLNHLIRASQS
As to B1, the binding result is reported as “binds”.

(Values after publication PMC12796345.)
